Measured values taken from patent US20190218304A1, “POTENTIATING THE EFFECT OF ATP RELEASE” (INNATE PHARMA, priority 2017, published 2019).
Changes are numbered by the printed parent chain. No constants are given. Whether binding was seen depends on the method and setting. Some entries that bind do so weakly or less than the wild type.

What was measured:
Assay in all cases: flow cytometry on transfected Hek-293T cells
CD39 mutant 1 (human) = biological target: T1, CD39 mutant 1 (human) (UniProt P49961)
T1 sequence: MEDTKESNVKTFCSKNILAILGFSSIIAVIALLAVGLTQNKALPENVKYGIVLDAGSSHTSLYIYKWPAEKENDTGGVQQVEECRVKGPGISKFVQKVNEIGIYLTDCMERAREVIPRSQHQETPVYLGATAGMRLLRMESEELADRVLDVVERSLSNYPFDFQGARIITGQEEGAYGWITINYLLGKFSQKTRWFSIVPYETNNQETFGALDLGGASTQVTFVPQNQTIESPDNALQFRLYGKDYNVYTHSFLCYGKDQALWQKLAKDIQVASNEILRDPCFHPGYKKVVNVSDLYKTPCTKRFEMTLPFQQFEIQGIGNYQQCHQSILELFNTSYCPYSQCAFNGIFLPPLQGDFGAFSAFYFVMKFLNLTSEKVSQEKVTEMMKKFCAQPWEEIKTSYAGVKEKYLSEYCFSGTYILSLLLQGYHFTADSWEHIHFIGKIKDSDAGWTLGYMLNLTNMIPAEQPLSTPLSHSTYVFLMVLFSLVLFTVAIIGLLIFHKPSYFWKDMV

CD39 mutant 18 (human) = biological target: T2, CD39 mutant 18 (human) (UniProt P49961)
T2 sequence: T1 sequence with G77V, Q79H, Q228A, I230S, D234A, Q238A, K444Q, D445G

CD39 mutant 2A (human) = biological target: T3, CD39 mutant 2A (human) (UniProt P49961)
T3 sequence: T1 sequence with G77V, Q79H, V81S, E82A, R111A, V115A, K444Q, D445G

CD39 mutant 6 (human) = biological target: T4, CD39 mutant 6 (human) (UniProt P49961)
T4 sequence: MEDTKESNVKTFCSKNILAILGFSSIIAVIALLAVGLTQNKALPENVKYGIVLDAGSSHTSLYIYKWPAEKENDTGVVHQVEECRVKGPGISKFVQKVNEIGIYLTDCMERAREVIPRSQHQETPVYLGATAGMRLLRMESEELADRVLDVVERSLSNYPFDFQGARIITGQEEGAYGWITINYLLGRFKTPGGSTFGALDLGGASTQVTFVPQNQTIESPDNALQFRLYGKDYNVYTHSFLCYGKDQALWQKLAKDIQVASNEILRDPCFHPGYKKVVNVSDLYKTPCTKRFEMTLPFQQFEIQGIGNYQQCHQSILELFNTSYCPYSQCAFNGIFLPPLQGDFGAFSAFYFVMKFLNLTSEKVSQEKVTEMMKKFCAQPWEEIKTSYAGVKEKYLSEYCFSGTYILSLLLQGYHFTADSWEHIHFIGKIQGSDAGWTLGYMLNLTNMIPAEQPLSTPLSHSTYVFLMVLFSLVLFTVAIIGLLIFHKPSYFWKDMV

CD39 mutant 7 (human) = biological target: T5, CD39 mutant 7 (human) (UniProt P49961)
T5 sequence: T1 sequence with G77V, Q79H, A273S, N275A, I277S, R279A, K444Q, D445G

binding (CD39 mutant 1 (human)): binds | binding (CD39 mutant 18 (human)): binds | binding (CD39 mutant 2A (human)): binds | binding (CD39 mutant 6 (human)): binds | binding (CD39 mutant 7 (human)): binds
B1: antibody I-399 (antibody, V domains shown)
VH: PVQLQQPGAEVVMPGASVKLSCKASGYTFTSFWMNWMRQRPGQGLEWIGEIDPSDFYTNSNQRFKGKATLTVDKSSSTAYMQLSSLTSEDSAVYFCARGDFGWYFDVWGTGTSVTVSS
VL: EIVLTQSPTTMTSSPGEKITFTCSASSSINSNYLHWYQQKPGFSPKLLIYRTSNLASGVPTRFSGSGSGTSYSLTIGTMEAEDVATYYCQQGSSLPRTFGGGTKLEIK
